Assay results as given in article PMC7076256.
No constants are given. Whether binding was seen depends on the method and setting. Binding seen in cells or lysates may run through a third protein. Some results given as binding are weak or reduced against the parent protein; the word gives no strength.

Amino acid sequences for entries named in this document (tags omitted).
UniProt Q86TM6: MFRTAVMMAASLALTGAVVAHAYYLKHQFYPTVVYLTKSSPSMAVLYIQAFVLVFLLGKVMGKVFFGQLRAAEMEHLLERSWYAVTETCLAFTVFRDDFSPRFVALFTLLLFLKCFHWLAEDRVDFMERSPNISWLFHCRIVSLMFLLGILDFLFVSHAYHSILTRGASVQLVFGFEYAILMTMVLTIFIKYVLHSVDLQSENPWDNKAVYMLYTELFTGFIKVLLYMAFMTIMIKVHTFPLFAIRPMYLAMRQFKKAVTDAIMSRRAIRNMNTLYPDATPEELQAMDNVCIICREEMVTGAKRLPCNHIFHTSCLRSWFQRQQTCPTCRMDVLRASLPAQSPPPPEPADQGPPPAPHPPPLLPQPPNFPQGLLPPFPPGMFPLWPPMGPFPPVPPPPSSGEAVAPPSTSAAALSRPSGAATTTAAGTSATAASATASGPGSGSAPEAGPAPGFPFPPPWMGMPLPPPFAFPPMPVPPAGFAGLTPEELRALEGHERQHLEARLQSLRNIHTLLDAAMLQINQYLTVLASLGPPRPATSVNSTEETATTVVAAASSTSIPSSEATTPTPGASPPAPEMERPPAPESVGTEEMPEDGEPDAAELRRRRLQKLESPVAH

Target: T1, endogenous SIRT2 (human (endogenous in A549)) (UniProt Q8IXJ6)
T1 sequence: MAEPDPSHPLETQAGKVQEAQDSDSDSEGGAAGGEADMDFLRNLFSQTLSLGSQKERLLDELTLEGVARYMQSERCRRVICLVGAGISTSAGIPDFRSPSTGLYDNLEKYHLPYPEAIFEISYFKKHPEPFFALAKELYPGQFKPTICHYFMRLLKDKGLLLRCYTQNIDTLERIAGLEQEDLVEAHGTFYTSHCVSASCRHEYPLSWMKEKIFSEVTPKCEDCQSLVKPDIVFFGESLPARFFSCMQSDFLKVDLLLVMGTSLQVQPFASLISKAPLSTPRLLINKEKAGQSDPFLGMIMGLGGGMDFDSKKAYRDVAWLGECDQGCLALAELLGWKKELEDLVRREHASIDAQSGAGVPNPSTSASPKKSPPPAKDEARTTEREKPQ
Test: co-IP; endogenous proteins in A549 cells; normal mouse IgG (mIgG) as control

Question: Which binding does the source give for “endogenous HRD1 (from UniProt Q86TM6 1-617)” here?
Answer: binds
